Assay results reported in PMC8174033.

Target: T1, fasciculation and elongation protein zeta 1 (FEZ1), full-length, EmGFP-tagged (UniProt Q99689)
T1 sequence: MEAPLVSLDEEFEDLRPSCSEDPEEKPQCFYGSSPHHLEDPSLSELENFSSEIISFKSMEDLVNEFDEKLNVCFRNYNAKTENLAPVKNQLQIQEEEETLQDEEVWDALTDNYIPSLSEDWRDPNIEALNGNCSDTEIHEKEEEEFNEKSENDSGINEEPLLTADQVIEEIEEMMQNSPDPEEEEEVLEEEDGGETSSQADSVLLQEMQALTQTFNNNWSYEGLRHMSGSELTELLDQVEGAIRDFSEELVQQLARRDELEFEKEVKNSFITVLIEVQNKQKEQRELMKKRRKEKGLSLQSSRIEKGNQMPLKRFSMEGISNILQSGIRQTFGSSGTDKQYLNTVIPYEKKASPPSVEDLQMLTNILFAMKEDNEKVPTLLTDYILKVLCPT
Assay: co-IP; HEK293 cells co-expressing the two tagged proteins, 24 h after transfection; lysis and washes in 50 mM HEPES, 150 mM NaCl, 1 mM EDTA, 1% Triton X-100, pH 7.2; GFP-Trap agarose beads 1-3 h at 4°C; immunoblot

## Munc18, FLAG-tagged
  binding: binds

Results are given in words; binding and its absence hold for the method and conditions named. In cells and extracts the contact can be indirect. A result given as binding can be weak or reduced; the word gives no strength. Sequences can lack the tags named with a protein.
